These are yes or no findings as the source states them, for the method shown. For some assays here: In cells and extracts the contact can be indirect. Some binding calls cover weakened binding; strength is not graded here.
Columns and labels:
[1] = molecular target: SOX17 (human (endogenous in FTSEC and HGSOC cell lines and human tissues)) (UniProt Q9H6I2); assay: co-IP
[2] = molecular target: PAX8 (human (endogenous in FT194, FT246, FT282, OVCAR4, KURAMOCHI, OVSAHO and human tissues)) (UniProt Q06710); assay: SEC
[3] = molecular target: PAX8 (human (endogenous in FT194, FT246, FT282, OVCAR4, KURAMOCHI, OVSAHO and human tissues)) (UniProt Q06710); assay: co-IP
[4] = molecular target: PAX8 (human (endogenous in FT194, FT246, FT282, OVCAR4, KURAMOCHI, OVSAHO and human tissues)) (UniProt Q06710); assay: proximity ligation
[5] = molecular target: PAX8 (human (endogenous in FT194, FT246, FT282, OVCAR4, KURAMOCHI, OVSAHO and human tissues)) (UniProt Q06710); assay: proximity ligation; remark: listed apart in the source

Protein sequences, listed by entry. Tags and fused reporters are not part of them.
UniProt Q9H6I2, whole entry: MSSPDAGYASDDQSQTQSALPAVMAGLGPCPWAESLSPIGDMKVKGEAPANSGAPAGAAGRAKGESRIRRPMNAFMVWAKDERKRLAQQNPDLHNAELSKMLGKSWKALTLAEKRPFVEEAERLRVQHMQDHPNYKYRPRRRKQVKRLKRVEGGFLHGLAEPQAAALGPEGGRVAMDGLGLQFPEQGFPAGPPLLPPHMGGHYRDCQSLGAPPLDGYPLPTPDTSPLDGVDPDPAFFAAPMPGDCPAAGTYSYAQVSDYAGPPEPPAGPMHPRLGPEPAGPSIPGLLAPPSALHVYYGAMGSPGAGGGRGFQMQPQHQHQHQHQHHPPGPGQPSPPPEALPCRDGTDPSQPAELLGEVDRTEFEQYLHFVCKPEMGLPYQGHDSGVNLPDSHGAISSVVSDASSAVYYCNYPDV
UniProt Q06710, whole entry: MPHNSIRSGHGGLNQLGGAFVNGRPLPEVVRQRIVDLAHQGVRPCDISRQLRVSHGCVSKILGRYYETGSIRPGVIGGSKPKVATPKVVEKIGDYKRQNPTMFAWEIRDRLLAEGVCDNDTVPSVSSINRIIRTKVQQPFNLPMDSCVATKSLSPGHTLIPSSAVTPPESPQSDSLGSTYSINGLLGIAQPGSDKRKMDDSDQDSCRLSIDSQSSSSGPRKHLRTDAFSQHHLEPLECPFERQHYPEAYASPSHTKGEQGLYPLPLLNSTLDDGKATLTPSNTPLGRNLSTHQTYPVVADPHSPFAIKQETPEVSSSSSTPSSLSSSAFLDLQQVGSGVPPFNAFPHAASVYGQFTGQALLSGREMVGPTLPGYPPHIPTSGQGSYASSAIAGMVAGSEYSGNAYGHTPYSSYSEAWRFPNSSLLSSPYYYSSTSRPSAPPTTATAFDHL

Substance	binding [1]	binding [2]	binding [3]	binding [4]	binding [5]
PAX8 (from UniProt Q06710 1-450)	binds				
SOX17 (from UniProt Q9H6I2 1-414)		binds	binds	binds	binds
